Measurements taken from PMC7658359.
No constants are given. Whether binding was seen depends on the method and setting. Some entries that bind do so weakly or less than the wild type.

Amino acid sequences for entries named in this document (tags omitted). A change or cut given only in a name is not applied to a line headed by its entry.
UniProt Q9LQQ4: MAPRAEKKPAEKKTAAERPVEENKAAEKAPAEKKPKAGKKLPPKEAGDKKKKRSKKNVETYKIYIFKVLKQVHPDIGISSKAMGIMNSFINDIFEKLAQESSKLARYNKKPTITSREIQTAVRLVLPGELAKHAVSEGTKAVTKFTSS
UniProt Q9C944: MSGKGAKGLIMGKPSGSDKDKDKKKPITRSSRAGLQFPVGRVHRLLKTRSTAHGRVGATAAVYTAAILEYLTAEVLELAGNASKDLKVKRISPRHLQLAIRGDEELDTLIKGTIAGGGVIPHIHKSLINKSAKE

Biological target: Arabidopsis histone H2B (HTB1) (Arabidopsis thaliana) (UniProt Q9LQQ4)
Assay: SEC; co-purification of the co-expressed H2A.Z-H2B dimer from bacteria: SP column, Heparin column, then size exclusion in 20 mM Tris-HCl pH 8.0, 1 M NaCl

For “Arabidopsis histone variant H2A.Z (HTA9) (from UniProt Q9C944 1-134)”, the binding was “binds”.
